Measurements published in PubChem BioAssay AID1347423 (Functional Genomics Laboratory (NCATS/FGL), 2020).
The campaign covered roughly 52,000 sequences. About 210 (0.4%) were called active.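 The calls were made as follows: active = gene whose silencing raises cell survival under the drug, median off-target-corrected z-score across its silencing RNAs 2 or more; inactive = the rest.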 Some of the results follow.

assay: Resistance to Poly (ADP-Ribose) Polymerase inhibitor: Gene Identification via Genome-wide siRNA Screen; details: mouse BRCA2 R2336H ES cells, olaparib, CellTiter-Glo viability; active compounds read high
Summary of the method: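 Mouse BRCA2 R2336H ES cells were reverse-transfected with siRNA (20 nM final), treated at 48 h with 500 nM olaparib, and read by CellTiter-Glo after 72 h. Scores: MAD-based z per siRNA, median per gene, seed off-target correction.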

Sequence | z-score
GGACAGUUGUGUUUCUUCUTT against Senp6 | inactive: -0.17
CGGAAAUGUAAGUACUUUATT against Taf13 | inactive: 1.22
GGAUUUUUGGCUUCAUACUTT against Dcbld2 | inactive: 0.417
CCCAGUUCUGUCCUACUUATT against 4931407K02Rik | inactive: 0.531
GCAACACCUACGUUUUUGUTT against Txnl1 | inactive: 1.01
GCCGAUGAAGUAAAUUUACTT against LOC212390 | inactive: 0.463
GGAAGAUGUCUCCUAUGAGTT against Hebp1 | inactive: -1.03
GGACAAUGACCAGAAUAGCTT against 0610012H03Rik | inactive: -0.186
CCUUCCAUCUUUGUCUACCTT against Olfr1181 | inactive: 0.21
GGGAAUUCUUCCCACCUCUTT against Pramel7 | inactive: -0.0747
CAGUUUUUGGUCUCUAUCUTT against Olfr113 | inactive: 0.798
CCAAGGGUAGUAUUUUAAATT against Nufip1 | inactive: 0.0643
GGAAUCCAAGAAGCCACCATT against Ghrl | inactive: 0.223
CCUUUAGAGAAAAGUUCUATT against Pja2 | inactive: -0.81
GAGUUUACCUAGUCUUUGATT against 2610028H07Rik | inactive: -0.00982
GGCUUGAAGAUGUCUAUGATT against Aptx | inactive: -1.4
CCUUUGGUUUCCAGUGAGUTT against H2-M10.6 | inactive: -1.16
GGAGAACCAAAACAGCGAATT against Hoxa2 | inactive: 0.951
GCAUGCGAUGAAGACAACATT against 2610021K21Rik | inactive: -0.613
GCUGGAAGUAGUCCAUACATT against 1810074P20Rik | inactive: -0.771
GGUACAGGAUAAGCAAAUATT against Txndc4 | inactive: -0.356
GGUUCUGUCCAAUGUCUGATT against Oas1f | inactive: -0.116

Sequence | z-score
GCGUAUUCAGCUGGGAUAGTT against Marveld2 | inactive: -2.98
GGAUUAGAUUAACCUCGACTT against P518 | inactive: -1.13
GGGAAUAAGUAGUAGACUCTT against BC049807 | inactive: 0.975
GCCUUUACAACAGAACCUUTT against Dip3b | inactive: 0.0761
GCACCAUUUUGAUCGUCAUTT against Olfr519 | inactive: 0.0178
GGCAGACAAGUUGUUAAAATT against Nusap1 | inactive: -1.11
GGGUGGGUGUUCAUUAUUATT against Timd2 | inactive: 0.102
GGAUCUGGAGAAGAUGAUGTT against Ret | inactive: -1.9
GGGACAAAGUAAUAAAGUGTT against Sprrl2 | inactive: -0.821
GGAAAUCCAAGAACUUAAUTT against Fgfr1op2 | inactive: 0.325
GGACUCUCAUUGAGGAACUTT against Znhit2 | inactive: 1.06
GGUUUUGAAAAAGCAUCAATT against Myoz2 | inactive: 0.6
GGGCCAACAAACUGUUUAATT against 2210402C18Rik | inactive: -0.095
GGAUGACUCACAGAAUUUGTT against Olfr167 | inactive: -0.118
GGAGAUGCUCAUUUUGAUUTT against Mmp8 | inactive: 0.397
GGACUCCUACAUGAUUGCUTT against Gpr172b | inactive: -0.335
GCUGAGUGAAUCCACGUACTT against 2010001M09Rik | inactive: 0.936
GGACUCCUAUGUGGGUGACTT against Actb | inactive: 0.88
GAGGGAUAUGUGAAGCCUCTT against Mospd3 | inactive: -1.38
GGAAAGAAUCACAAGGAAATT against Wbp4 | inactive: 1.38
CCUUCCCUAAGAUCAGGCGTT against Gsdm3 | inactive: -0.0883
GGAAUACCUGCUUUUAUUUTT against 4930455C21Rik | inactive: 1.14

Rewritten as tab-separated lines: part of the list above
Sequence	z-score
CCCAGUUCUGUCCUACUUATT against 4931407K02Rik	inactive: 0.531
GCAACACCUACGUUUUUGUTT against Txnl1	inactive: 1.01
GGGAAUUCUUCCCACCUCUTT against Pramel7	inactive: -0.0747
GGGAAUAAGUAGUAGACUCTT against BC049807	inactive: 0.975
GGAAAUCCAAGAACUUAAUTT against Fgfr1op2	inactive: 0.325

(listing goes on)

Sequence | z-score
GGUGGCUAGCCAGACAAAATT against Rnf151 | inactive: -1.23
GGAAAAGCUACCUGUGUCATT against 1200009O22Rik | inactive: -1.35
GGAGUUCAAGGCCAAGGAATT against Atp6v1g1 | inactive: -1.9
CGGUGAGGAUUGUUGAGCUTT against D130060H24Rik | inactive: -0.705
GGAGAGGAAUGGUGUGUUATT against 4931428D14Rik | inactive: -0.16
ACAAGAAACGUACAAGACATT against MGC103250 | inactive: 1.29
GGACCUGGAAUUCGUCUGATT against Socs3 | inactive: -1.19
CCUUCUUAUAGGUUAACUGTT against Pde10a | inactive: 0.808
GCAGUUUUAACUGGCCAUATT against Nr2f2 | inactive: -0.57
GGACAGCAGCAACAACAUCTT against Dnase1l3 | inactive: -1.06
GGAGCUUGACAUUAAGGACTT against D14Ertd171e | inactive: -2.32
GCUUGACUUGUUUUUGGCATT against Nfib | inactive: 1.26
CGAAUCAUGUGUUUGCACATT against Camkk2 | inactive: -0.414
GCUGAACGGUCUCAAACAGTT against Cdca3 | inactive: -2.24
GGUUGUACUUGUUUUUCCUTT against 1810033A06Rik | inactive: -0.945
GCUUCGAGAGUUCAACAUCTT against Zmynd19 | inactive: 1.08
GCAGUCAUAACAGAGCAUCTT against Gtf2h3 | inactive: 1.13
GGGCUUUGGAUGAACUGCATT against Cldn17 | inactive: -0.46
GCAGCACCUUUGUGGUUCCTT against Ins2 | inactive: -0.904
GGAAAUCCAUCGUUAUUCUTT against Abca8a | inactive: 1.03
GCUACUAAAGGUUUUAGGATT against Rps6ka2 | inactive: 1.45
GCUAUGUUCACUAUCCCACTT against AI849156 | inactive: 0.228
